Measurements from the supplement of paper PMC4604168 (melanoma cell lines).
Some of the results follow. Repeats are few or missing, and single values can be far off.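 Cells were imaged in 1,536-well plates, and nuclei stained with an antibody against cleaved PARP were counted against all DNA-stained nuclei to give the apoptosis fraction. Screening doses were chosen to leave most cells alive, and resting and induced cleaved-PARP levels differ strongly between cell lines.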

Key:
Experiment in all cases: cleaved PARP positive nuclei fraction relative to DMSO control; melanoma cells; higher = more apoptosis
Conditions in all cases: library dose: low library concentration; 72 h
WM115 = system: WM115
WM1716 = system: WM1716
WM1745 = system: WM1745
WM3526 = system: WM3526
WM3619 = system: WM3619
WM451Lu = system: WM451Lu

| Structure (SMILES) | cleaved PARP positive nuclei fraction (WM115) | cleaved PARP positive nuclei fraction (WM1716) | cleaved PARP positive nuclei fraction (WM1745) | cleaved PARP positive nuclei fraction (WM3526) | cleaved PARP positive nuclei fraction (WM3619) | cleaved PARP positive nuclei fraction (WM451Lu) |
| --- | --- | --- | --- | --- | --- | --- |
| O=C(CCCCCCC(=O)Nc1ccccc1)NO [vorinostat] + COC(=O)c1sccc1S(=O)(=O)Nc1ccc(Nc2ccccc2)cc1OC [GSK0660] (first compound 0.08 µM, partner dose 1 µM) | 77.8% | 117% | 93.9% | 70% | 72.8% | 130% |
| OCc1c[nH]c2ccccc12 [Indole-3-carbinol] + Cc1nc(Nc2ncc(C(=O)Nc3c(C)cccc3Cl)s2)cc(N2CCN(CCO)CC2)n1 [dasatanib] (first compound 0.8 µM, partner dose 0.004 µM) | 89% | 178% | 142% | 70% | 99.4% | 204% |
| CC(=O)c1c(C)c2cnc(Nc3ccc(N4CCNCC4)cn3)nc2n(C2CCCC2)c1=O [palbociclib] + COc1ccc(COc2ccc(Cc3cnc(N)nc3N)cc2OC)cc1 [GW2580] (first compound 0.04 µM, partner dose 1 µM) | 70% | 92.4% | 263% | 129% | 114% | 44.2% |
| Cn1cncc1[C@@](N)(c1ccc(Cl)cc1)c1ccc2c(c1)c(-c1cccc(Cl)c1)cc(=O)n2C [tipifarnib] + COc1ccc2c(c1)CCC1C2CCC2(C)C(NCCCCCCN3C(=O)C=CC3=O)CCC12 [U73122] (first compound 0.01 µM, partner dose 0.4 µM) | 99.3% | 197% | 116% | 69.9% | 306% | 84.5% |
| Clc1ccc(Nc2nnc(Cc3ccncc3)c3ccccc23)cc1 [vatalanib] + Cc1cc(N2CCOCC2)cc2[nH]c(-c3c(NC[C@@H](O)c4cccc(Cl)c4)cc[nH]c3=O)nc12 [BMS536924] (first compound 2 µM, partner dose 0.2 µM) | 15.8% | 148% | 106% | 60% | 103% | 61.1% |
| Cn1nnc2c(C(N)=O)ncn2c1=O [temozolomide] + COc1ccc(-c2ccc3c(N4CCOCC4)nc(N4C[C@@H](C)O[C@@H](C)C4)nc3n2)cc1CO [KU0063794] (first compound 2 µM, partner dose 0.02 µM) | 133% | 106% | 111% | 67.4% | 85.8% | 198% |
| C[C@]1(c2nc3c(C(N)=O)cccc3[nH]2)CCCN1 [Veliparib] + Oc1nc(-c2ccc(C(F)(F)F)cc2)nc2c1CSCC2 [XAV939] (first compound 1.4 µM, partner dose 2 µM) | 104% | 145% | 129% | 145% | 106% | 107% |
| OCc1c[nH]c2ccccc12 [Indole-3-carbinol] + C[C@@H]1CCN(C(=O)CC#N)C[C@@H]1N(C)c1ncnc2[nH]ccc12 [CP690550] (first compound 0.8 µM, partner dose 1 µM) | 89% | 82.4% | 98.5% | 54.3% | 107% | 60.3% |
| NC(=O)Nc1cc(-c2cccc(F)c2)sc1C(=O)N[C@H]1CCCNC1 + CN(C)S(=O)(=O)c1ccc2c(c1)/C(=C/c1cc3c([nH]1)CCCC3)C(=O)N2 [SU6656] (first compound 0.02 µM, partner dose 0.4 µM) | 304% | 69.5% | 116% | 90.2% | 85.9% | 28.1% |
| O=C(CCCCCCC(=O)Nc1ccccc1)NO [vorinostat] + COc1cc(Nc2ncc(F)c(Nc3ccc4c(n3)NC(=O)C(C)(C)O4)n2)cc(OC)c1OC [Tamatinib] (first compound 0.08 µM, partner dose 0.4 µM) | 99.7% | 121% | 86.1% | 56.7% | 119% | 368% |
| CC(C)(C)c1cnc(CSc2cnc(NC(=O)C3CCNCC3)s2)o1 + Oc1cc(-c2nc(-c3ccccc3)[nH]c2-c2ccncc2)ccc1Cl [L779450] (first compound 0.01 µM, partner dose 0.2 µM) | 151% | 97% | 130% | 78.6% | 90.1% | 53.1% |
| COc1cc(Nc2ncc(F)c(Nc3ccc4c(n3)NC(=O)C(C)(C)O4)n2)cc(OC)c1OC [Tamatinib] + CC1(C)NC(=O)N(c2ccc([N+](=O)[O-])c(C(F)(F)F)c2)C1=O [nilutamide] (first compound 0.4 µM, partner dose 1 µM) | 98.2% | 185% | 134% | 73.5% | 86.3% | 93.2% |
| CC(=O)c1c(C)c2cnc(Nc3ccc(N4CCNCC4)cn3)nc2n(C2CCCC2)c1=O [palbociclib] + O=C(O)C(=O)Nc1sc2c(c1C(=O)O)CCNC2 [TCS401] (first compound 0.04 µM, partner dose 1.66667 µM) | 197% | 57.6% | 137% | 111% | 127% | 43.7% |
| Cn1cncc1[C@@](N)(c1ccc(Cl)cc1)c1ccc2c(c1)c(-c1cccc(Cl)c1)cc(=O)n2C [tipifarnib] + CN(NC(=O)CC(=O)NN(C)C(=S)c1ccccc1)C(=S)c1ccccc1 [STA4783] (first compound 0.01 µM, partner dose 0.006 µM) | 391% | 348% | 469% | 32.7% | 233% | 78.3% |
| C=CCNC1=C2C[C@@H](C)C[C@H](OC)[C@H](O)[C@@H](C)/C=C(\C)[C@H](OC(N)=O)[C@@H](OC)/C=C\C=C(/C)C(=O)NC(=CC1=O)C2=O [Tanespimycin] + COc1ccc(-c2ccc3c(N4CCOCC4)nc(N4C[C@@H](C)O[C@@H](C)C4)nc3n2)cc1CO [KU0063794] (first compound 0.002 µM, partner dose 0.02 µM) | 156% | 148% | 88.9% | 78.9% | 105% | 137% |
| C[C@]1(c2nc3c(C(N)=O)cccc3[nH]2)CCCN1 [Veliparib] + N#Cc1c(O)c2c(-c3ccc(-c4ccccc4O)cc3)csc2[nH]c1=O [A769662] (first compound 1.4 µM, partner dose 2 µM) | 335% | 91.2% | 106% | 117% | 62.5% | 26.6% |
| O=C(Nc1cccc(Cl)c1)Nc1ncc(CCNc2ncnc3ccsc23)s1 + O=C(Nc1ccccc1)c1cc([N+](=O)[O-])ccc1Cl [GW9662] (first compound 0.0008 µM, partner dose 2 µM) | 319% | 98.9% | 123% | 186% | 100% | 60.3% |
| C[C@]1(c2nc3c(C(N)=O)cccc3[nH]2)CCCN1 [Veliparib] + O=C(Nc1ccccc1)c1cc([N+](=O)[O-])ccc1Cl [GW9662] (first compound 1.4 µM, partner dose 2 µM) | 304% | 149% | 123% | 37.9% | 106% | 27.9% |
| C[C@]1(c2nc3c(C(N)=O)cccc3[nH]2)CCCN1 [Veliparib] + O=C(O)C(=O)Nc1sc2c(c1C(=O)O)CCNC2 [TCS401] (first compound 1.4 µM, partner dose 1.66667 µM) | 162% | 99.6% | 122% | 65.6% | 94.1% | 49.6% |
| C=CCn1c(=O)c2cnc(Nc3ccc(N4CCN(C)CC4)cc3)nc2n1-c1cccc(C(C)(C)O)n1 + O=C(O)c1ccc(-c2c[nH]c3ncc(-c4ccccc4)cc23)cc1C1CCCC1 [GSK650394] (first compound 0.02 µM, partner dose 0.16 µM) | 177% | 219% | 120% | 70.5% | 214% | 83.7% |
| CC(C)(C)c1cnc(CSc2cnc(NC(=O)C3CCNCC3)s2)o1 + COc1ccc(COc2ccc(Cc3cnc(N)nc3N)cc2OC)cc1 [GW2580] (first compound 0.01 µM, partner dose 1 µM) | 80.5% | 91.1% | 117% | 55.3% | 86% | 122% |
| C#Cc1cccc(Nc2ncnc3cc(OCCOC)c(OCCOC)cc23)c1 [erlotinib] + CCCCCCCCCCCC1=C(O)C(=O)C=C(O)C1=O [Embelin] (first compound 0.8 µM, partner dose 1.2 µM) | 187% | 144% | 126% | 67.8% | 83.8% | 118% |
| C[C@@H]1CCN(C(=O)CC#N)C[C@@H]1N(C)c1ncnc2[nH]ccc12 + Cc1cc([N+](=O)[O-])ccc1NS(=O)(=O)c1cc(Cl)ccc1Cl [FH535] (first compound 1 µM, partner dose 1 µM) | 48.6% | 132% | 92.5% | 127% | 170% | 56.6% |
| CC(C)(C)c1cnc(CSc2cnc(NC(=O)C3CCNCC3)s2)o1 + Cc1cc(N2CCOCC2)cc2[nH]c(-c3c(NC[C@@H](O)c4cccc(Cl)c4)cc[nH]c3=O)nc12 [BMS536924] (first compound 0.01 µM, partner dose 0.2 µM) | 58.1% | 113% | 125% | 25.5% | 87.3% | 243% |
| CC(C)(C)c1cnc(CSc2cnc(NC(=O)C3CCNCC3)s2)o1 + CN(C)S(=O)(=O)c1ccc2c(c1)/C(=C/c1cc3c([nH]1)CCCC3)C(=O)N2 [SU6656] (first compound 0.01 µM, partner dose 0.4 µM) | 318% | 143% | 95.9% | 53.7% | 111% | 68.8% |
| Cn1cncc1[C@@](N)(c1ccc(Cl)cc1)c1ccc2c(c1)c(-c1cccc(Cl)c1)cc(=O)n2C [tipifarnib] + Cc1cc([N+](=O)[O-])ccc1NS(=O)(=O)c1cc(Cl)ccc1Cl [FH535] (first compound 0.01 µM, partner dose 1 µM) | 262% | 84.4% | 113% | 83.4% | 137% | 141% |

Reprinted at random: two records from the list, in no set order.

| Structure (SMILES) | cleaved PARP positive nuclei fraction (WM115) | cleaved PARP positive nuclei fraction (WM1716) | cleaved PARP positive nuclei fraction (WM1745) | cleaved PARP positive nuclei fraction (WM3526) | cleaved PARP positive nuclei fraction (WM3619) | cleaved PARP positive nuclei fraction (WM451Lu) |
| --- | --- | --- | --- | --- | --- | --- |
| Cn1cncc1[C@@](N)(c1ccc(Cl)cc1)c1ccc2c(c1)c(-c1cccc(Cl)c1)cc(=O)n2C [tipifarnib] + Cc1cc([N+](=O)[O-])ccc1NS(=O)(=O)c1cc(Cl)ccc1Cl [FH535] (first compound 0.01 µM, partner dose 1 µM) | 262% | 84.4% | 113% | 83.4% | 137% | 141% |
| Cn1cncc1[C@@](N)(c1ccc(Cl)cc1)c1ccc2c(c1)c(-c1cccc(Cl)c1)cc(=O)n2C [tipifarnib] + COc1ccc2c(c1)CCC1C2CCC2(C)C(NCCCCCCN3C(=O)C=CC3=O)CCC12 [U73122] (first compound 0.01 µM, partner dose 0.4 µM) | 99.3% | 197% | 116% | 69.9% | 306% | 84.5% |
